The numbers were not newly measured in publication PMC6853154 (Clinical and Translational Science, 2019), which cites them from elsewhere.

The structures appear in SMILES notation.

For the series, the system named is CYP1A2. The conditions noted are these: coadministration of potent CYP1A2 inhibitor; cited from earlier work.

Turning to `O=C(O)c1cn(C2CC2)c2cc(N3CCNCC3)c(F)cc2c1=O` [ciprofloxacin], the “Increase of plasma exposure of tizanidine” value is recorded as “up to 30 fold”.
